These results are taken from article PMC4326925.

Sequences of proteins named here, by UniProt entry; tags and fusion partners are left off.
UniProt P05412, whole entry: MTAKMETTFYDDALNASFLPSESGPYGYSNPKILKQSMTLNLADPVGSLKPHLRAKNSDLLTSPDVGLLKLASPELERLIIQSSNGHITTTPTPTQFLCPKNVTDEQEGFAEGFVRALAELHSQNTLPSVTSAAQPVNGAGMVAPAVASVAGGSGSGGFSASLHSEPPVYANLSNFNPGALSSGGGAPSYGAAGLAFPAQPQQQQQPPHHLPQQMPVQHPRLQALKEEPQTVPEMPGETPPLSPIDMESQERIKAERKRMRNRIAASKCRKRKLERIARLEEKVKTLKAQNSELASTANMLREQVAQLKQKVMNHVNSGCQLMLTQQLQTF

The target of this data set is c-Jun (human (primary dermal fibroblasts, Lat-A treated)) (UniProt P05412). The data set can be described thus: EMSA coupled with Western blot of excised shifted band. As to conditions: nuclear extract of Lat-A treated fibroblasts (30 nM, 24 h), complex abolished by excess unlabeled wild-type AP-1 probe; 5 ug nuclear extract, ~2x10^5 cpm probe, on ice 30 min; 4% polyacrylamide gel in TBE; binding buffer, salt and pH not stated (as in Quan et al., 2001); protein in an extract; label: 5'-32P.

The exact form of at least one protein or probe is not confirmed. Results from cells or extracts need not show a direct contact.

“ATAAAGCATGAGTCAGACAGCTC (double strand) [MMP-1 promoter AP-1 probe]”: the binding result is “binds”.
